# Patent US20120156198A1 (Hoffmann-La Roche, published 2012)
# Sequences of proteins named here, by UniProt entry; tags and fusion partners are left off. A change or cut given only in a name is not applied to a line headed by its entry.
# UniProt Q14116: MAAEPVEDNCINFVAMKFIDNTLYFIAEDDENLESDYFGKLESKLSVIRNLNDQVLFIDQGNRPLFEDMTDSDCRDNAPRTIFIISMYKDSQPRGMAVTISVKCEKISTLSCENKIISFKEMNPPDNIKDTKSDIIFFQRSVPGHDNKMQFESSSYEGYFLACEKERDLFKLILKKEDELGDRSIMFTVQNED
# Results are given in words; binding and its absence hold for the method and conditions named. Some results given as binding are weak or reduced against the parent protein; the word gives no strength. For some assays here: Sequences can lack the tags named with a protein.
# What was measured:
# [1] = target: T1, wild type shIL-18Rα:Fc (human) (UniProt Q13478); assay: SPR (BIAcore 3000, 25°C), Fc-tagged variant captured, mixture of both proteins at 100 nM
# T1 sequence: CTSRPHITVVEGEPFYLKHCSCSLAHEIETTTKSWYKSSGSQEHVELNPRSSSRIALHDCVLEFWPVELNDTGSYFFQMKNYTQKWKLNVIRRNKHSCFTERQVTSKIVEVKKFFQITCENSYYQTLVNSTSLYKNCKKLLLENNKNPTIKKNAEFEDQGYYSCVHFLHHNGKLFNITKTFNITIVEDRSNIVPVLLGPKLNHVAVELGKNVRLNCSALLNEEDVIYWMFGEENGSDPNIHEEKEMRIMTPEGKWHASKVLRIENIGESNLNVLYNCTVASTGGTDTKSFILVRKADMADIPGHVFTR
# [2] = target: cynomolgus IL-18Rα:Fc (cynomolgus; human); assay: as above
substance,measurement,setting,value
IL-18/IL-18Rβ (control): mixture of the natural ligands IL-18 and IL-18Rβ (from UniProt Q14116 37-193; O95256 20-356),binding,[1],binds
same,binding,[2],binds
